Taken from: PubChem BioAssay AID1159578 (Peter MacCallum Cancer Centre, 2015)
Shown is an unselected part of about 18,000 deposited reagents. Over the whole deposit, about 1,030 (5.7%) were called active. 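Inactive calls also include pools with fewer than 3300 nuclei, whose migration was not assessed.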 The raw values are shown without normalisation. Entries without a mark were called inactive.

Purpose: 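siRNA pools altering how lymphatic endothelial cells close a scratch wound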 (primary screen)
Cells: human lymphatic endothelial cells
Reagents: siRNA pool against human genes, 40 nM
Duration: 48 h after transfection
Detection: 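Cells stained with dye and imaged after a scratch; covered wound area and nuclei counted, duplicates averaged, migration set against mock wells and turned into a robust z-score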
Direction: migration robust z-score: higher = faster migration into the scratch; migration relative to mock: higher = more scratch area covered than mock; nuclei per well: higher = more cells in the well
Rule for the call: 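Migration changed when robust z exceeds 2 or falls below -2 and mean nuclei number is at least 3300; otherwise not called changed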
Calls: active = migration changed; inactive = no migration change, or too few cells

| Target gene | PubChem SID | migration robust z-score | migration class with cell-count check | migration relative to mock | nuclei per well, duplicate mean |
| --- | --- | --- | --- | --- | --- |
| PRM2 | SID255351835 | -1.84 | migration z between -2 and 2; enough cells | 0.41 | 3900 |
| RIMS4 | SID255363131 | -0.99 | migration z between -2 and 2; enough cells | 0.62 | 5108 |
| WBP11 | SID255357875 | -0.26 | migration z between -2 and 2; enough cells | 0.76 | 5383 |
| LRTM1 | SID255359377 | -0.49 | migration z between -2 and 2; enough cells | 0.75 | 5048 |
| GPR3 | SID255349980 | 1.55 | migration z between -2 and 2; enough cells | 1.1 | 6408 |
| SLC9A8 | SID255356155 | 0.44 | migration z between -2 and 2; enough cells | 1 | 4886 |
| A2M | SID255348110 | 0.46 | migration z between -2 and 2; enough cells | 0.9 | 4756 |
| ELP3 | SID255358441 | 0.08 | migration z between -2 and 2; enough cells | 0.82 | 6380 |
| VPS18 | SID255359509 | -0.11 | migration z between -2 and 2; enough cells | 0.78 | 5722 |
| TMEM248 | SID255358386 | 0.66 | migration z between -2 and 2; enough cells | 1.06 | 5208 |
| UBE2J2 | SID255362436 | -0.99 | migration z between -2 and 2; enough cells | 0.61 | 3828 |
| ZNF37A | SID255353208 | -0.52 | migration z between -2 and 2; enough cells | 0.75 | 4652 |
| STX10 | SID255353732 | 0.66 | migration z between -2 and 2; enough cells | 1.05 | 6604 |
| PSMB7 | SID255351889 | -0.88 | migration z between -2 and 2; enough cells | 0.64 | 5912 |
| PARVB | SID255357171 | 0.08 | migration z between -2 and 2; enough cells | 0.9 | 5888 |
| PLEKHJ1 | SID255358418 | -0.16 | migration z between -2 and 2; enough cells | 0.84 | 5514 |
| PSMD3 | SID255351902 | -1.16 | migration z between -2 and 2; enough cells | 0.58 | 4974 |
| CDIN1 | SID255361399 | -0.23 | migration z between -2 and 2; enough cells | 0.82 | 6680 |
| H2BC3 | SID255350134 | -0.73 | migration z between -2 and 2; enough cells | 0.7 | 5178 |
| ESPL1 | SID255354483 | 0.65 | migration z between -2 and 2; enough cells | 0.93 | 3720 |
| EFEMP2 | SID255357277 | 1.45 | migration z between -2 and 2; enough cells | 1.27 | 4698 |
| DENND2D | SID255360596 | 1.68 | migration z between -2 and 2; enough cells | 1.32 | 4996 |
| PHKG2 | SID255351558 | -2.41 (active) | migration z below -2; enough cells | 0.34 | 4191 |
| HOXB1 | SID255350269 | -0.76 | migration z between -2 and 2; enough cells | 0.66 | 3748 |
| GADD45B | SID255351094 | 1.31 | migration z between -2 and 2; enough cells | 1.23 | 7112 |
| IL1A | SID255350443 | -1.58 | migration z between -2 and 2; enough cells | 0.5 | 5404 |
| DOCK4 | SID255354509 | -0.42 | migration z between -2 and 2; enough cells | 0.77 | 5142 |
| TXNL4B | SID255358302 | 0.54 | migration z between -2 and 2; enough cells | 0.91 | 6266 |
| MARCHF3 | SID255362293 | 0.91 | migration z between -2 and 2; enough cells | 0.98 | 6290 |
| ADSS2 | SID255348220 | -1.06 | migration z between -2 and 2; enough cells | 0.6 | 4330 |
| ZDHHC12 | SID255361548 | 1.4 | migration z between -2 and 2; enough cells | 1.25 | 5838 |
| TAL2 | SID255352743 | -0.8 | migration z between -2 and 2; enough cells | 0.68 | 5764 |
| NT5C3B | SID255362289 | -0.5 | migration z between -2 and 2; enough cells | 0.76 | 5495 |
| NPFFR1 | SID255359832 | -0.49 | migration z between -2 and 2; enough cells | 0.71 | 5283 |
| AKT1S1 | SID255361344 | -0.54 | migration z between -2 and 2; enough cells | 0.74 | 6558 |
| AIP | SID255353992 | -1.38 | migration z between -2 and 2; enough cells | 0.54 | 4616 |
| RAP1GAP2 | SID255355995 | -0.08 | migration z between -2 and 2; enough cells | 0.86 | 6106 |
| SDHAF2 | SID255358295 | 2.56 (active) | migration z above 2; enough cells | 1.54 | 5341 |
| SERPINA1 | SID255351560 | 0.83 | migration z between -2 and 2; enough cells | 0.96 | 5626 |
| DLX1 | SID255349315 | -2.64 (active) | migration z below -2; enough cells | 0.2 | 3638 |
| GP9 | SID255349970 | -1.63 | migration z between -2 and 2; enough cells | 0.46 | 3982 |
| PAX9 | SID255351428 | -0.24 | migration z between -2 and 2; enough cells | 0.76 | 3734 |
| CDH17 | SID255348835 | 0.5 | migration z between -2 and 2; enough cells | 0.9 | 5738 |
| DDX60 | SID255358708 | 0.29 | migration z between -2 and 2; enough cells | 0.96 | 7066 |
| HAVCR2 | SID255361535 | -1.04 | migration z between -2 and 2; enough cells | 0.6 | 5691 |
| SLAMF1 | SID255352436 | 0.96 | migration z between -2 and 2; enough cells | 0.99 | 5584 |
| REXO5 | SID255360939 | 0.73 | migration z between -2 and 2; enough cells | 0.94 | 5623 |
| IQCB1 | SID255354449 | 1.01 | migration z between -2 and 2; enough cells | 1.15 | 5266 |
| CRIPAK (retired record) | SID255364854 | 0.29 | migration z between -2 and 2; enough cells | 0.96 | 6604 |
| DMRT3 | SID255359659 | 0.7 | migration z between -2 and 2; enough cells | 0.94 | 4638 |
| ZNF768 | SID255360418 | 1.29 | migration z between -2 and 2; enough cells | 1.22 | 5846 |
| CA6 | SID255348641 | -0.06 | migration z between -2 and 2; enough cells | 0.8 | 5240 |
| MKKS | SID255353417 | -1.69 | migration z between -2 and 2; enough cells | 0.44 | 5926 |
| CCR4 | SID255348977 | -0.68 | migration z between -2 and 2; enough cells | 0.68 | 6614 |
| SLC25A13 | SID255354863 | 0.24 | migration z between -2 and 2; enough cells | 0.85 | 5370 |
| ECRG4 | SID255361354 | -0.16 | migration z between -2 and 2; enough cells | 0.84 | 5944 |
| INPP5B | SID255350508 | -1.03 | migration z between -2 and 2; enough cells | 0.6 | 4494 |

Laid out differently: entries from further up.
{"Target gene": "TMEM248", "PubChem SID": "SID255358386", "migration robust z-score": 0.66, "migration class with cell-count check": "migration z between -2 and 2; enough cells", "migration relative to mock": 1.06, "nuclei per well, duplicate mean": 5208}
{"Target gene": "UBE2J2", "PubChem SID": "SID255362436", "migration robust z-score": -0.99, "migration class with cell-count check": "migration z between -2 and 2; enough cells", "migration relative to mock": 0.61, "nuclei per well, duplicate mean": 3828}
{"Target gene": "ZNF37A", "PubChem SID": "SID255353208", "migration robust z-score": -0.52, "migration class with cell-count check": "migration z between -2 and 2; enough cells", "migration relative to mock": 0.75, "nuclei per well, duplicate mean": 4652}
{"Target gene": "STX10", "PubChem SID": "SID255353732", "migration robust z-score": 0.66, "migration class with cell-count check": "migration z between -2 and 2; enough cells", "migration relative to mock": 1.05, "nuclei per well, duplicate mean": 6604}
